Test results reported in PMC10868826.
No constants are given. Whether binding was seen depends on the method and setting. In cells and extracts the contact can be indirect. Where a sequence is shown, tags or fusion partners need not be part of it.

Target: T1, Flag-tagged human GBP1 (GBP1-Wt) (human) (UniProt P32455)
T1 sequence: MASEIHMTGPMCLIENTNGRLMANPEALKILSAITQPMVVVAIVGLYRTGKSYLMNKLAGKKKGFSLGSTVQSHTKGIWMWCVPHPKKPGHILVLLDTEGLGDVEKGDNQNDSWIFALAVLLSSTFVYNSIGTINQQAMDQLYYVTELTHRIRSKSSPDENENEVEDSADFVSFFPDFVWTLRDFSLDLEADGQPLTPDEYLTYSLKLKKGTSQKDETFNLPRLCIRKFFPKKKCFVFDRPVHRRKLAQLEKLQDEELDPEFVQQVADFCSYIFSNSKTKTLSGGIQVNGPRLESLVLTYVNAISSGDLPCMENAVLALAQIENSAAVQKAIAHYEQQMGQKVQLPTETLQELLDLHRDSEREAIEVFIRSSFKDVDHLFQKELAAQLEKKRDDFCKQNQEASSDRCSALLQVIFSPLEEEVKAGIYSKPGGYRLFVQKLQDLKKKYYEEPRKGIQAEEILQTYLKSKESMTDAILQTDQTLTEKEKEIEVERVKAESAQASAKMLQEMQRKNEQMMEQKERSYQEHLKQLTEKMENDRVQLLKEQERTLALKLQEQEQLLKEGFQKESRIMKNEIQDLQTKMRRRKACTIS
Experiment: co-IP; co-immunoprecipitation using a Flag-tagged GBP1 construct; cells, buffer and conditions not told; no blot shown

HCV core protein (hepatitis C virus)
binding: no binding
